Values quoted from earlier work as cited in patent US20200325140A1, “FUSED BICYCLIC COMPOUNDS FOR THE TREATMENT OF DISEASE” (Akarna Therapeutics, Ltd., priority 2016, published 2020).
Read-outs that look alike come from different tables or passages of the source. At least one structure is not confirmed: it was looked up by name or label, or the drawing left a doubt.

Key:
[1] = PBC patients with inadequate response to UDCA, cited from earlier work
[2] = biopsy-proven NASH, OCA 25 mg orally daily, 72 weeks of treatment; cited from earlier work

CC[C@H]1[C@@H](O)[C@@H]2[C@H](CC[C@]3(C)[C@@H]([C@H](C)CCC(=O)O)CC[C@@H]23)[C@@]2(C)CC[C@@H](O)C[C@@H]12 [OCA, obeticholic acid]
proportion of patients meeting the primary endpoint (composite: serum ALP, total bilirubin) ([1]; 10 mg OCA group): 47%
proportion of patients meeting the primary endpoint (composite: serum ALP, total bilirubin) ([1]; 5-10 mg OCA group (5 mg daily titrated to 10 mg)): 46%
percentage of patients who demonstrated histological improvement [2]: 45%
